Consider one molecule from article PMC5008309.

For the test, the target named is ERBB3-cytosolic region (CR). As to the kind of experiment: co-IP; HEK293T cells co-transfected with pHA-APIP (or APIP deletion mutant) and pERBB3-3xFLAG (or ERBB3 deletion mutant) for 24 h; whole-cell lysates immunoprecipitated; western blotting. (In general: In western blotting, separated proteins are transferred to a membrane and probed.)

No constants are given. Whether binding was seen depends on the method and setting. In cells and extracts the contact can be indirect. Binding calls can cover weak binding; strength is not graded here. Sequences can lack the tags named with a protein.

B1: HA-tagged APIP (pHA-APIP) expressed in HEK293T cells (protein, UniProt Q96GX9-1 1-242)
chain: MSGCDAREGDCCSRRCGAQDKEHPRYLIPELCKQFYHLGWVTGTGGGISLKHGDEIYIAPSGVQKERIQPEDMFVCDINEKDISGPSPSKKLKKSQCTPLFMNAYTMRGAGAVIHTHSKAAVMATLLFPGREFKITHQEMIKGIKKCTSGGYYRYDDMLVVPIIENTPEEKDLKDRMAHAMNEYPDSCAVLVRRHGVYVWGETWEKAKTMCECYDYLFDIAVSMKKVGLDPSQLPVGENGIV
For the molecule B1, the binding result was “binds”.
